{
  "sequences": {"note": "By UniProt entry, the sequences of proteins in these tests, tags left out. Residues count along the entry.", "UniProt P03952, residues 20-638": "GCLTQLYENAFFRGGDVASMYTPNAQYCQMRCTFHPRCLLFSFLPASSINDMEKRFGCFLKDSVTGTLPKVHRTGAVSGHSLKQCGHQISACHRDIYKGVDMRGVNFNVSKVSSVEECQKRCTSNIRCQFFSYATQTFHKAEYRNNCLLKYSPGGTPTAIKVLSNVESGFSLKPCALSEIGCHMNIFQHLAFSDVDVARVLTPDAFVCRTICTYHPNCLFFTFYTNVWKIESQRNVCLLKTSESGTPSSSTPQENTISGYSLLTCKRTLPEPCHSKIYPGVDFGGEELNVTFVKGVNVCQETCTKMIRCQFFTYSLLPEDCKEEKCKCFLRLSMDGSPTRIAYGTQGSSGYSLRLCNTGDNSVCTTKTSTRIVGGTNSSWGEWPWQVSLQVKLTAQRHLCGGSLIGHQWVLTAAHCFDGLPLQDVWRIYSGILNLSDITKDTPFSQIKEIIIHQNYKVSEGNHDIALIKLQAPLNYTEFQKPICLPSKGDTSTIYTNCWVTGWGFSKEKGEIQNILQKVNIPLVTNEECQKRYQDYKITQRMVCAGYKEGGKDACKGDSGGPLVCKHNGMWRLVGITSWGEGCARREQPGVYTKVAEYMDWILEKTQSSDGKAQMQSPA"},
  "source": "patent US20060264603A1",
  "binders": {"B1": {"name": "KKII/3#1 (designed binder)", "chain": "MHSFCAFKADDGHCKASLPRFFFNIFTRQCEEFIYGGCEGNQNRFESLEECKKMCTRD"}, "B2": {"name": "KKII/3#2 (designed binder)", "chain": "B1 chain with H13P, S17N, L18H, P19L, I34S, E39G"}, "B3": {"name": "KKII/3#3 (designed binder)", "chain": "B1 chain with S17N, L18H, P19Q, I34T, E39G"}, "B4": {"name": "KKII/3#4 (designed binder)", "chain": "B1 chain with S17N, L18H, P19Q, E32Q, I34T, E39A"}, "B5": {"name": "KKII/3#5 (designed binder)", "chain": "B1 chain with E39G"}, "B6": {"name": "KKII/3#6 (designed binder)", "chain": "B1 chain with S17N, L18H, P19Q, I34S, E39G"}, "B7": {"name": "KKII/3#7 (designed binder)", "chain": "B1 chain with S17N, L18H, P19Q, I34S, E39G"}, "B8": {"name": "KKII/3#8 (designed binder)", "chain": "B1 chain with S17N, L18H, P19Q, I34S, E39G"}, "B9": {"name": "KKII/3#9 (designed binder)", "chain": "B1 chain with S17N, L18H, P19Q, I34S, E39G"}, "B10": {"name": "KKII/3#10 (designed binder)", "chain": "B1 chain with A16G, S17A, L18H, P19L"}, "B11": {"name": "KKI/3 (b) (designed binder)", "chain": "B1 chain with H13P, S17I, L18H, P19L"}, "B12": {"name": "KKI/3 (a) (designed binder)", "chain": "B1 chain with H13R, A16G, S17A, L18H, P19L"}},
  "key": {"[1]": {"target": "human plasma Kallikrein (Calbiochem, San Diego, Calif., # 420302) (human) (UniProt P03952)", "test": "phage display selection on human plasma kallikrein-agarose beads, two phases"}, "[2]": {"target": "human plasma Kallikrein (Calbiochem, San Diego, Calif., # 420302) (human) (UniProt P03952)", "test": "phage display selection on kallikrein beads"}, "[3]": {"target": "human plasma Kallikrein (Calbiochem, San Diego, Calif., # 420302) (human) (UniProt P03952)", "test": "phage display selection on kallikrein beads, first phase"}},
  "note": "Changes are numbered by the printed parent chain. Results are given in words; binding and its absence hold for the method and conditions named. Some entries that bind do so weakly or less than the wild type.",
  "data": [
    {"binder": "B1", "values": [
      {"measurement": "binding", "setting": "[1]", "result": "binds"},
      {"measurement": "binding", "setting": "[2]", "result": "binds"}
    ]},
    {"binder": "B2", "values": [
      {"measurement": "binding", "setting": "[1]", "result": "binds"},
      {"measurement": "binding", "setting": "[2]", "result": "binds"}
    ]},
    {"binder": "B3", "values": [
      {"measurement": "binding", "setting": "[1]", "result": "binds"},
      {"measurement": "binding", "setting": "[2]", "result": "binds"}
    ]},
    {"binder": "B4", "values": [
      {"measurement": "binding", "setting": "[1]", "result": "binds"},
      {"measurement": "binding", "setting": "[2]", "result": "binds"}
    ]},
    {"binder": "B5", "values": [
      {"measurement": "binding", "setting": "[1]", "result": "binds"},
      {"measurement": "binding", "setting": "[2]", "result": "binds"}
    ]},
    {"binder": "B6", "values": [
      {"measurement": "binding", "setting": "[1]", "result": "binds"},
      {"measurement": "binding", "setting": "[2]", "result": "binds"}
    ]},
    {"binder": "B7", "values": [
      {"measurement": "binding", "setting": "[1]", "result": "binds"},
      {"measurement": "binding", "setting": "[2]", "result": "binds"}
    ]},
    {"binder": "B8", "values": [
      {"measurement": "binding", "setting": "[1]", "result": "binds"},
      {"measurement": "binding", "setting": "[2]", "result": "binds"}
    ]},
    {"binder": "B9", "values": [
      {"measurement": "binding", "setting": "[1]", "result": "binds"},
      {"measurement": "binding", "setting": "[2]", "result": "binds"}
    ]},
    {"binder": "B10", "values": [
      {"measurement": "binding", "setting": "[1]", "result": "binds"},
      {"measurement": "binding", "setting": "[2]", "result": "binds"}
    ]},
    {"binder": "B11", "values": [
      {"measurement": "binding", "setting": "[3]", "result": "binds"},
      {"measurement": "binding", "setting": "[2]", "result": "binds"}
    ]},
    {"binder": "B12", "values": [
      {"measurement": "binding", "setting": "[3]", "result": "binds"},
      {"measurement": "binding", "setting": "[2]", "result": "binds"}
    ]}
  ]
}
